# Taken from: PubChem BioAssay AID1224826 (NIAID, 2016)
# Assay: 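Knock-downs that raise or lower Tnf reporter signal after endotoxin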 (primary screen)
# Cells: RAW264.7 G9 macrophages from mouse bearing reporters for p65 (GFP) and the Tnf promoter (mCherry)
# Reagents: siRNA pool against mouse genes, 100 nM
# Timing: 16 h of LPS stimulation, after 2 days of siRNA transfection
# Treatment: bacterial lipopolysaccharide (Salmonella minnesota R595), 10 ng/ml
# Measurement: 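Nuclear mCherry signal of the Tnf promoter reporter measured by imaging after background removal, scaled to each plate median and turned into robust z-scores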
# Reading the numbers: Tnf reporter robust z-score: higher = stronger Tnf promoter reporter signal after LPS; Tnf reporter intensity: higher = stronger Tnf promoter reporter signal
# Call rule: 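Called active when robust z-score is at most -1.3, matching the median of the Tlr4 knock-down control, or over 3; control wells and wells with under 50 cells never active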
# Calls: active = Tnf reporter clearly lowered or raised; inactive = no clear change in Tnf reporter
# Here is one part, drawn at random, of about 17,000 reagents tested. About 1,110 of them (6.6%) were called active. 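Active means lowered or raised reporter signal; replicate intensities are raw and not normalised per plate.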 The numbers tell different reagents against one gene apart.
target gene,reagent no.,Tnf reporter robust z-score,fewer than 50 cells in well,"Tnf reporter intensity, replicate 1","Tnf reporter intensity, replicate 2",activity call
Clec4b1,1,,fewer than 50 cells per well; well left out of calls,478,219,inactive
9530009G21Rik,1,0.67,enough cells in well,260,190,inactive
Il12b,1,-0.6,enough cells in well,192,148,inactive
Trem4,1,0.69,enough cells in well,136,271,inactive
Cog1,1,-0.11,enough cells in well,186,131,inactive
Kras,1,-0.31,enough cells in well,246,112,inactive
Slc11a1,1,-1.08,enough cells in well,66.2,40.9,inactive
Pwwp3a,1,-0.29,enough cells in well,181,151,inactive
Mtnr1a,1,0.14,enough cells in well,350,74,inactive
Crmp1,1,-0.01,enough cells in well,168,192,inactive
Klhl10,1,0.31,enough cells in well,215,144,inactive
Ptpra,1,-0.42,enough cells in well,232,146,inactive
Ern2,1,0.38,enough cells in well,239,181,inactive
Sectm1a,1,-0.07,enough cells in well,211,191,inactive
Gemin6,1,-0.35,enough cells in well,176,149,inactive
Uros,1,0.03,enough cells in well,249,211,inactive
F9,1,1.23,enough cells in well,347,300,inactive
Ndst4,1,0.5,enough cells in well,325,226,inactive
Slc25a3,1,0.63,enough cells in well,121,124,inactive
Mfsd11,1,0.77,enough cells in well,310,33.1,inactive
Or4c116,1,-0.35,enough cells in well,161,136,inactive
Dct,1,-0.05,enough cells in well,233,219,inactive
Krtap19-3,1,1.63,enough cells in well,272,221,inactive
Prkab1,1,-1.44,enough cells in well,124,102,active

7 entries from above, reformatted:
target gene	reagent no.	Tnf reporter robust z-score	fewer than 50 cells in well	Tnf reporter intensity, replicate 1	Tnf reporter intensity, replicate 2	activity call
9530009G21Rik	1	0.67	enough cells in well	260	190	inactive
Il12b	1	-0.6	enough cells in well	192	148	inactive
Trem4	1	0.69	enough cells in well	136	271	inactive
Cog1	1	-0.11	enough cells in well	186	131	inactive
Kras	1	-0.31	enough cells in well	246	112	inactive
Slc11a1	1	-1.08	enough cells in well	66.2	40.9	inactive
Pwwp3a	1	-0.29	enough cells in well	181	151	inactive

The results go on.
target gene,reagent no.,Tnf reporter robust z-score,fewer than 50 cells in well,"Tnf reporter intensity, replicate 1","Tnf reporter intensity, replicate 2",activity call
H2bc6,1,0.53,enough cells in well,287,114,inactive
Troap,1,0.55,enough cells in well,271,274,inactive
Ankrd27,1,-0.9,enough cells in well,163,112,inactive
Taf11,1,0.09,enough cells in well,197,166,inactive
Gypc,1,-0.29,enough cells in well,230,78.3,inactive
Rbm6,1,-0.14,enough cells in well,345,162,inactive
Nptx2,1,-0.09,enough cells in well,188,50.5,inactive
Or5t16,1,-0.73,enough cells in well,167,92,inactive
Cyp2c39,1,2.36,enough cells in well,361,285,inactive
Htra3,1,-0.69,enough cells in well,144,138,inactive
Ugt2b35,1,-0.39,enough cells in well,132,167,inactive
Ski,1,-0.12,enough cells in well,275,201,inactive
Or6d15,1,,fewer than 50 cells per well; well left out of calls,107,89.5,inactive
Krt34,1,-1.21,enough cells in well,148,53.8,inactive
Rida,1,-0.77,enough cells in well,108,172,inactive
Ccn4,1,0.92,enough cells in well,369,276,inactive
Tarbp2,1,-0.75,enough cells in well,230,64.4,inactive
Cog6,1,-0.9,enough cells in well,151,98.9,inactive
Sema5a,1,1.14,enough cells in well,86.9,141,inactive
Dcaf7,1,,fewer than 50 cells per well; well left out of calls,160,169,inactive
Ptprv,1,-0.67,enough cells in well,105,77.6,inactive
Glb1l2,1,0.9,enough cells in well,34.9,215,inactive
Alx1,1,-1.23,enough cells in well,79.1,102,inactive
Plekhg2,1,0.55,enough cells in well,187,216,inactive
Espn,1,-1.06,enough cells in well,142,98.8,inactive
Ndufs7,1,0.12,enough cells in well,253,101,inactive
Telo2,1,-0.09,enough cells in well,201,84.4,inactive
Mettl13,1,0.33,enough cells in well,156,201,inactive
Taf9,1,-0.37,enough cells in well,111,168,inactive
Taf9,2,1.33,enough cells in well,164,140,inactive
Pakap,1,3.14,enough cells in well,360,333,active
Pakap,2,-0.21,enough cells in well,70.7,121,inactive
Cep83os,1,,fewer than 50 cells per well; well left out of calls,191,68.1,inactive
Il17re,1,-1.62,enough cells in well,92,56.5,active
